PubChem BioAssay AID1224828, NIAID, 2016
Screen: 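Knock-downs that increase or decrease LPS-induced p65 nuclear translocation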 (primary screen). System: mouse RAW264.7 G9 macrophage reporter cells (GFP-p65, Tnf promoter-mCherry). Reagents: siRNA pool against mouse genes, 100 nM. Timing: 2 days siRNA transfection, then 40 min LPS before fixation. Challenge: LPS (Salmonella minnesota R595) at 10 ng/ml. Detection: 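Microscopy ratio of nuclear to perinuclear-ring GFP-p65 signal, scaled to the plate median; gene score is the average of two replicate robust z-scores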. Direction: p65 translocation robust z-score: higher = more nuclear NF-kappaB p65 after LPS than the plate median; nuclear/cytoplasmic p65 ratio: higher = more nuclear NF-kappaB p65. Active means: 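Active if robust z is above 3.3 (negative regulators) or below -1.56, the Tlr4 control median (positive regulators); activity score 50 or more; control wells not called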. Meaning of the calls: active = hit (p65 shift raised or lowered); inactive = no clear change.
In all, the deposit lists about 17,000 reagents; below is a random part of them. 762 of all reagents (4.5%) count as active. 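Active calls include both raised and lowered p65 entry, mostly lowered; wells with fewer than 50 cells lack a z-score.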 Raw values vary from plate to plate and are shown uncorrected. Reagents against one gene are numbered here.

no.	gene symbol	reagent	p65 translocation robust z-score	nuclear/cytoplasmic p65 ratio, rep 1	nuclear/cytoplasmic p65 ratio, rep 2	low cell count flag	outcome
1	Krtap13	1	-1.09	1.41	1.27	enough cells to score	inactive
2	Apbb1ip	1	0.61	1.62	1.54	enough cells to score	inactive
3	Smc6	1		1.12	1.14	fewer than 50 cells per well; well left out of scoring	inactive
4	Aurkc	1	-1.95	1.54	1.14	enough cells to score	active
5	Ms4a6d	1	-0.37	1.82	1.46	enough cells to score	inactive
6	Ms4a6d	2	-1.21	1.6	1.39	enough cells to score	inactive
7	Ybey	1	1.56	1.67	1.65	enough cells to score	inactive
8	Gns	1	1.92	1.67	1.64	enough cells to score	inactive
9	Zfp959	1	-0.26	1.6	1.73	enough cells to score	inactive
10	Eif4b	1	1.24	1.61	1.54	enough cells to score	inactive
11	Slc20a1	1	0.54	1.41	1.37	enough cells to score	inactive
12	Samd8	1		1.41	1.65	fewer than 50 cells per well; well left out of scoring	inactive
13	Paip2b	1	0.25	1.62	1.88	enough cells to score	inactive
14	Xrcc1	1	-0.54	1.38	1.48	enough cells to score	inactive
15	Alas2	1	0.06	1.66	1.6	enough cells to score	inactive
16	Tifa	1	0.66	1.47	1.25	enough cells to score	inactive
17	Slc37a1	1		1.77	1.03	fewer than 50 cells per well; well left out of scoring	inactive
18	Nras	1	0.67	1.62	1.42	enough cells to score	inactive
19	Zfp94	1	-0.69	1.42	1.4	enough cells to score	inactive
20	Nptx1	1	-0.25	1.43	1.36	enough cells to score	inactive
21	Lgsn	1	-0.05	1.37	1.42	enough cells to score	inactive
22	Hnrnpa2b1	1	0.07	1.72	1.49	enough cells to score	inactive
23	Tnni3	1	-0.76	1.48	1.35	enough cells to score	inactive
24	Acbd6	1	1.18	1.77	1.88	enough cells to score	inactive

Just “p65 translocation robust z-score” (3 entries from above):
Ms4a6d #1 = -0.37
Ms4a6d #2 = -1.21
Ybey = 1.56
